Data: ChEMBL document CHEMBL5352460, “Antibacterial activity evaluation of pleuromutilin derivatives with 4(3H)-quinazolinone scaffold against methicillin-resistant Staphylococcusaureus” (Eur J Med Chem, 2023)
≈ marks a conversion by molar mass, not a printed value.

Test system: Escherichia coli
Assay: microbe, parasite or virus in culture
Type: functional
Conditions: ATCC25922, time 20 hrs

Compound: C=C[C@]1(C)C[C@@H](OC(=O)CSc2nc3[nH]ccc3c(=O)[nH]2)[C@]2(C)[C@H](C)CC[C@]3(CCC(=O)[C@H]32)[C@@H](C)[C@@H]1O
- MIC: 32 µg/mL (≈ 60.6 µM)
